Data from US8138219B2, “Tryptamine sulfonamides as 5-HT6 antagonists” (Merck Sharp & Dohme Corp., priority 2007, dated 2012).
Some entries share one result that the patent states for a list of compounds.

Chains of the proteins cited; added tags and fusions are not shown.
UniProt P50406, whole entry: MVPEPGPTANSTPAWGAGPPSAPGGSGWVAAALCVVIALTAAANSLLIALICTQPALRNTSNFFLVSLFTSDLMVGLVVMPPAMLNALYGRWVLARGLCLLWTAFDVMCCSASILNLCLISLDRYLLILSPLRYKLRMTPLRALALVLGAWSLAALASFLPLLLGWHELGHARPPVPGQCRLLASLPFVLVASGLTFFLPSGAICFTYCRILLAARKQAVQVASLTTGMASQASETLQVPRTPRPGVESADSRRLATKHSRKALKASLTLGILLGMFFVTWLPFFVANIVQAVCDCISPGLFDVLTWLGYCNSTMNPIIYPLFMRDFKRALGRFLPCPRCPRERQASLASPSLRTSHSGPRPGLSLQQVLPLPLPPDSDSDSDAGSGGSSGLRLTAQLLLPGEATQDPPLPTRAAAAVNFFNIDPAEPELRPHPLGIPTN

Biological target: T1, Human 5-HT6 (Homo sapiens, UniProt P50406)
T1 construct: expressed in transfected cells
Experiment: 5-HT6 receptor binding assay ([3H]5-HT displacement, SPA), human receptor
Conditions: 5-HT6 binding assay, bound stated
Protocol: 5-HT6 Receptor Binding Assay
Affinity (IC50) of a compound for cloned human, rat, or mouse 5-HT6 receptor was measured by its ability to displace [^3H]5-HT using cell membranes prepared from cultured cells and scintillation proximity assay (SPA) beads that bind to cell membranes (Catalog No. RPNQ0001; GE Healthcare Life Sciences, Piscataway, N.J.). Assays were carried out in 200 μl binding buffer (50 mM Tris-HCl, pH 7.4, 5 mM MgCl2, 0.5 mM EDTA, 10 μM pargyline and 0.1% ascorbic acid) in 96-well plates. Cell membranes were re-suspended in binding buffer to final concentration of up to 0.2 mg protein/ml and mixed with reconstituted SPA beads to a final concentration of 0.25 mg/ml. To each well, […] of above mixture, 50 of cold compound (to 10^−10 to 10^−5 M final concentration) and 50 μl of [^3H]5-HT radioligand (specific activity, 100 Ci/mmol, GE Healthcare Life Sciences; final concentration, 5 nM) were added. Following 1 h incubation at room temperature, the radioactivity bound to the cell membranes was measured on a scintillation counter.

`O=S(=O)(c1cc(Cl)cc(Cl)c1)n1cc(CCNCc2cccc(OCC(F)(F)C(F)F)c2)c2ccc(F)cc21` [Example 5] was tested, and the IC50 was under 5 µM.

Compound `O=S(=O)(c1ccc(Cl)cc1)n1cc(CCNCc2cccc(OCC(F)(F)C(F)F)c2)c2ccc(F)cc21` [Example 7] has an IC50 of under 5 µM.

Work on `CC(C)S(=O)(=O)n1cc(CCNCc2cccc(OCC(F)(F)C(F)F)c2)c2ccc(F)cc21` [Example 14] yielded an IC50 of under 5 µM.

Work on `O=S(=O)(c1ccc(F)c(Cl)c1)n1cc(CCNCc2cccc(OCC(F)(F)C(F)F)c2)c2ccc(F)cc21` [Example 9] yielded an IC50 of under 5 µM.

Work on `O=S(=O)(c1cccc(F)c1)n1cc(CCNCc2cccc(OCC(F)(F)C(F)F)c2)c2ccc(F)cc21` [Example 11] yielded an IC50 of under 5 µM.

Work on `O=S(=O)(c1cccc(C(F)(F)F)c1)n1cc(CCNCc2cccc(OCC(F)(F)C(F)F)c2)c2ccc(F)cc21` [Example 10] yielded an IC50 of under 5 µM.

Compound `COc1ccc(S(=O)(=O)n2cc(CCNCc3cccc(OCC(F)(F)C(F)F)c3)c3ccc(F)cc32)cc1` [Example 15] has an IC50 of under 5 µM.

Work on `Cl.O=S(=O)(c1ccccc1)n1cc(CCNCc2cccc(OCC(F)(F)C(F)F)c2)c2ccc(F)cc21` [Example 1] yielded an IC50 of under 5 µM.

`O=S(=O)(c1ccc(Br)cc1)n1cc(CCNCc2cccc(OCC(F)(F)C(F)F)c2)c2ccc(F)cc21` [Example 8] gave an IC50 of under 5 µM.

`COc1cccc(S(=O)(=O)n2cc(CCNCc3cccc(OCC(F)(F)C(F)F)c3)c3ccc(F)cc32)c1` [Example 3] was tested, and the IC50 was under 5 µM.

`O=S(=O)(c1cccc(Cl)c1)n1cc(CCNCc2cccc(OCC(F)(F)C(F)F)c2)c2ccc(F)cc21` [Example 4] gave an IC50 of under 5 µM.
